8 targets from the supplement of paper PMC10849652 can be followed below.

Sequences of proteins named here, by UniProt entry; tags and fusion partners are left off. A change or cut given only in a name is not applied to a line headed by its entry.
UniProt Q9UHQ1: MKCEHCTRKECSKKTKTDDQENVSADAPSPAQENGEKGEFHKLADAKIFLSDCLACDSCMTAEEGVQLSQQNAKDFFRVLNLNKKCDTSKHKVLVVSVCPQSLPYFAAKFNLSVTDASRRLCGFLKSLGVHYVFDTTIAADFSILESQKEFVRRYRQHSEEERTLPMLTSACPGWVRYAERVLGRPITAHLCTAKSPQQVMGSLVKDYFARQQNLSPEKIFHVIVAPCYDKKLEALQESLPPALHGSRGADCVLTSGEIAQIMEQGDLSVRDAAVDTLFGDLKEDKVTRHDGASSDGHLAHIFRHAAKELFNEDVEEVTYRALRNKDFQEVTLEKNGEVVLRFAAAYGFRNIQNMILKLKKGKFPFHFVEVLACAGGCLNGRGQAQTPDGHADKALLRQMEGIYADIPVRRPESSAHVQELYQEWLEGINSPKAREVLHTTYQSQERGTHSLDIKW
UniProt P14649: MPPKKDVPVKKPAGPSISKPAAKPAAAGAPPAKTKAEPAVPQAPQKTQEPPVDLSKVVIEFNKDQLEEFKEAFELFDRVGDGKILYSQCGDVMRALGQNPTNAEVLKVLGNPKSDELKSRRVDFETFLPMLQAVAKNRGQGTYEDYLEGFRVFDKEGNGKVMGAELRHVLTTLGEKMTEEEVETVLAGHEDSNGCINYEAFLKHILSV
UniProt Q86XI2: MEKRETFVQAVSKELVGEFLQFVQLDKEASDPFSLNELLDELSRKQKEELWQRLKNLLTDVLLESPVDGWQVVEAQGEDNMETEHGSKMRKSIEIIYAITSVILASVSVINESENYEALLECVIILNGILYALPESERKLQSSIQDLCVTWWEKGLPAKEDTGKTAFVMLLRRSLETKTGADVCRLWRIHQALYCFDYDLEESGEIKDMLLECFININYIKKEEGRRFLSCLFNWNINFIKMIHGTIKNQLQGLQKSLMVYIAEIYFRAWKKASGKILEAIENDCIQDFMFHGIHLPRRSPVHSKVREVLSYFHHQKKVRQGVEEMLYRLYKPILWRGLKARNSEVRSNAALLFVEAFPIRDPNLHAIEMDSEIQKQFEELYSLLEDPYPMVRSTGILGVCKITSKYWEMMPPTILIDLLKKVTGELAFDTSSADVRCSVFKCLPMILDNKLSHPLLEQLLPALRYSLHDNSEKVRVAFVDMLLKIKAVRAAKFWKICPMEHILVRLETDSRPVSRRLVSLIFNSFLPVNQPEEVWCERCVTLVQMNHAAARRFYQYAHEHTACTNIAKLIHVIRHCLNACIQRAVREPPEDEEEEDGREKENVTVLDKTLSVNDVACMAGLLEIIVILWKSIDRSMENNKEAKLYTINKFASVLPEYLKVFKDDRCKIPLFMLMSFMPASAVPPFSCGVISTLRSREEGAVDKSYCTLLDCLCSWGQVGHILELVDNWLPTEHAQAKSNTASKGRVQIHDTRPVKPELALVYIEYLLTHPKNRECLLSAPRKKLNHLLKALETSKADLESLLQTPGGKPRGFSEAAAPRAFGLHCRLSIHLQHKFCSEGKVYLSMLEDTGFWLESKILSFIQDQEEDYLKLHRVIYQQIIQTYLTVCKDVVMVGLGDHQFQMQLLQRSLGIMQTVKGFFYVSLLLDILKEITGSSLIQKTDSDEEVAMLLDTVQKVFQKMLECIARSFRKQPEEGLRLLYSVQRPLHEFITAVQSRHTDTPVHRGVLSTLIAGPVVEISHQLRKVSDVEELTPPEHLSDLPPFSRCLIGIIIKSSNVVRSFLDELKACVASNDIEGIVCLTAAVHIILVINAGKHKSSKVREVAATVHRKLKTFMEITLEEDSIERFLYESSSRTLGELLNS
UniProt Q5VZE5: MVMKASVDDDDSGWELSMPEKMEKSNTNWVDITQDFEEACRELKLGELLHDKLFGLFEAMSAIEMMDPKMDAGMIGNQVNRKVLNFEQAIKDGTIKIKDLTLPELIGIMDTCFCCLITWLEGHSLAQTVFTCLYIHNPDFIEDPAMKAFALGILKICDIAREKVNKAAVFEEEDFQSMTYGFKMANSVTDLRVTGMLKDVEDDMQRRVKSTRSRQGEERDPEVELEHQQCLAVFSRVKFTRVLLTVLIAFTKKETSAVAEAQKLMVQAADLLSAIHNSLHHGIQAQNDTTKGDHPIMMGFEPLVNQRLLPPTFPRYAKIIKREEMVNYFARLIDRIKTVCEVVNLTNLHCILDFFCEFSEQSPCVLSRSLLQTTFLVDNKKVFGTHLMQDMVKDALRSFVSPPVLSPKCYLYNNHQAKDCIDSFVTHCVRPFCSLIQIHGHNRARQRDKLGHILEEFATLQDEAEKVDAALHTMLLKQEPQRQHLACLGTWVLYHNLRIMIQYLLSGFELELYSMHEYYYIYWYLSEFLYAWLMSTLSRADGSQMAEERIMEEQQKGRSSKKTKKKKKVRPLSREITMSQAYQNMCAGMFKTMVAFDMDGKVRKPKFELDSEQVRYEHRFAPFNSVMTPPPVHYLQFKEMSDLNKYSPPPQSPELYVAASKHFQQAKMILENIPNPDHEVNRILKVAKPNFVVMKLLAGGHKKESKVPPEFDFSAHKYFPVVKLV
UniProt Q93015: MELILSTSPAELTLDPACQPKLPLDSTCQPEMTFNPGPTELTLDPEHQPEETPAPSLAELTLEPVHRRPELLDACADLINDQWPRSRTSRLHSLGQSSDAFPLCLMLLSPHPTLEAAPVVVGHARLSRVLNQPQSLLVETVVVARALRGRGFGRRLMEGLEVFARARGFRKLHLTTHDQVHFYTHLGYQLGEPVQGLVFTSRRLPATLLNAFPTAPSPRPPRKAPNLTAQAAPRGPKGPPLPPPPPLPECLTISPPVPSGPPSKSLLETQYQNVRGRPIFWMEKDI
UniProt Q96NY9: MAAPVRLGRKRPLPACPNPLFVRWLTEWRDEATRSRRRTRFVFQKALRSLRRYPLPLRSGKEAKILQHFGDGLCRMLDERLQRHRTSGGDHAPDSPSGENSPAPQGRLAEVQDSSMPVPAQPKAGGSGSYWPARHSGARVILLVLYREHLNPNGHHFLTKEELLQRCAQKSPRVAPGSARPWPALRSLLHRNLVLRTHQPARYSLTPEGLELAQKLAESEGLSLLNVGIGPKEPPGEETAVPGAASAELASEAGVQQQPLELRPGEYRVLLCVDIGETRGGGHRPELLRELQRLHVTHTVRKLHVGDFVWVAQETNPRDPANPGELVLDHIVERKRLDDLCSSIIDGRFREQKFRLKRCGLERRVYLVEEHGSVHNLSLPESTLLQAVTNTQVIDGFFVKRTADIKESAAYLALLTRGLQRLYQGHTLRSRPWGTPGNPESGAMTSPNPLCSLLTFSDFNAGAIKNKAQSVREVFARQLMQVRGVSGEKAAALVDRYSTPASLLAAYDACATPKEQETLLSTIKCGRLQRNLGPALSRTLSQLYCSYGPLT
UniProt Q969V3: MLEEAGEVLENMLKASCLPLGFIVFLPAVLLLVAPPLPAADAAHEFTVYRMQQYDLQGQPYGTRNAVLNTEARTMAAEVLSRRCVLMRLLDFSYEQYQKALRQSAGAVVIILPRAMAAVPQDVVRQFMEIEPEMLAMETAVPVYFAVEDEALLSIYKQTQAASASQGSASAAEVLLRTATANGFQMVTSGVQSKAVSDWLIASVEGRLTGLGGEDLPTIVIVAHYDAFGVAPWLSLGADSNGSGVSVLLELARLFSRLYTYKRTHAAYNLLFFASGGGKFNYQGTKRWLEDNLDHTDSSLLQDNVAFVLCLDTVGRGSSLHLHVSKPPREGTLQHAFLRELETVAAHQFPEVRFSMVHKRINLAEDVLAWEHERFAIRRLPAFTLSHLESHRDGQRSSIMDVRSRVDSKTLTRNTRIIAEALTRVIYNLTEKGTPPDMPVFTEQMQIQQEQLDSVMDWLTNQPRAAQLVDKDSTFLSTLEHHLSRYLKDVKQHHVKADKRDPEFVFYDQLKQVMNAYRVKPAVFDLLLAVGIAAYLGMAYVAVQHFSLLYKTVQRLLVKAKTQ
UniProt B0I1T2: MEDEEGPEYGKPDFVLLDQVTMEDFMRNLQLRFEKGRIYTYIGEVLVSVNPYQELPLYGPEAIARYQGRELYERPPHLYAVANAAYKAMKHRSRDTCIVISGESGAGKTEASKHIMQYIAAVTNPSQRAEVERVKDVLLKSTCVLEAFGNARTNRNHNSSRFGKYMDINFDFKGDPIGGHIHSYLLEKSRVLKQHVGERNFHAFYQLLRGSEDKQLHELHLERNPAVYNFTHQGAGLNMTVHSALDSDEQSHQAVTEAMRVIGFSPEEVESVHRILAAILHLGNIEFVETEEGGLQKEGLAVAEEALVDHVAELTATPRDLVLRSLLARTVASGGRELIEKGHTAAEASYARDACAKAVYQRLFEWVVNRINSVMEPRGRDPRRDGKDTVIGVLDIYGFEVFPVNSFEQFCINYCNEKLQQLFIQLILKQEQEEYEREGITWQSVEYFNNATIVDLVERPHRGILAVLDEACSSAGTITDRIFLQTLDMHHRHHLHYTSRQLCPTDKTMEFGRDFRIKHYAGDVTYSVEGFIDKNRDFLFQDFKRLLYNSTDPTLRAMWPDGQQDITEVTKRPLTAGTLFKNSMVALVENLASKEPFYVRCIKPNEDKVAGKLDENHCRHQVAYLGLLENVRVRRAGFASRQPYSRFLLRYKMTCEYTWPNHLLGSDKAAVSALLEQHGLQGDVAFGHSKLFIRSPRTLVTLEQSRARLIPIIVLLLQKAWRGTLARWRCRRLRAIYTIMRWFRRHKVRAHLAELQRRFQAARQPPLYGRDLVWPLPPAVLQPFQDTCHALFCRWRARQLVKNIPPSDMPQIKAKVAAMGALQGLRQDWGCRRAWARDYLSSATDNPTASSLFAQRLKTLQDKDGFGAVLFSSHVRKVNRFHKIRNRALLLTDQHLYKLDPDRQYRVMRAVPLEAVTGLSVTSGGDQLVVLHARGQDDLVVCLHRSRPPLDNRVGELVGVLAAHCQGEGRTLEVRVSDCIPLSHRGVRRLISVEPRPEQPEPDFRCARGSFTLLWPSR

The other results are listed elsewhere or left out.

Assay in all cases: log2 fold change, soluble protein after heating vs DMSO (PISA); higher = thermal stabilisation; K562 lysate, 10 uM; active = over 0.2 and 3.5 SD of the protein, either way, in both replicates (recomputed)
Compound in assay [1]: NCC(=O)Nc1ccc(-n2nc(C(F)(F)F)cc2-c2ccc3c(ccc4ccccc43)c2)cc1
In short, it runs like this:
(§1)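 A 30 min treatment with 10 μM compound was applied to crude K562 extract at 1 mg/mL protein in PBS pH 7.4 with 1 mM MgCl2. Heating for 3 min spanned 48°C-58°C, after which aliquots were pooled, adjusted to 0.5% NP-40 at 4°C and spun at 21,000xg for 90 min. TMTpro 16plex LC-MS/MS of the supernatant, with channel sums equalised, gave values recorded as log-two fold change in thermal stability against solvent controls, from duplicates.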

Compound in the next assay: O=C(CCCCCCC(=O)Nc1ccccc1)NO [vorinostat]
In short, it runs like this: as §1

Compound in another assay: O=C(O)c1ccc2c(c1)nc(Nc1cccc(Cl)c1)c1ccncc12 [silmitasertib]
The method, boiled down:
as §1

Compound in assay [2]: O=C1NC(=O)C(c2cnc3ccccn23)=C1c1cn2c3c(cc(F)cc13)CN(C(=O)N1CCCCC1)CC2
The method, boiled down: as §1

Compound in a further assay: c1cn2cc(-c3ccc4cn[nH]c4c3)nc(Nc3ccc(N4CCOCC4)cc3)c2n1 [entospletinib]
The method, boiled down: as §1

As for NARF (UniProt Q9UHQ1), the log2 fold change in assay [1] is inactive: -0.05; with vorinostat, active: -0.243; with silmitasertib it was inactive: -0.016; in assay [2], inactive: -0.008; in the assay with entospletinib, inactive: -0.054.
The corresponding values for MYL6B (UniProt P14649) are inactive: -0.013, inactive: 0.053, inactive: -0.019, inactive: 0.016 and inactive: -0.02.
The corresponding values for NCAPG2 (UniProt Q86XI2) are inactive: 0.002, active: -0.598, inactive: 0.015, inactive: -0.016 and inactive: 0.009.
The corresponding values for NAA35 (UniProt Q5VZE5) are inactive: -0.04, active: -0.308, inactive: 0.017, inactive: 0.004 and inactive: 0.028.
With NAA80 isoform 2 (UniProt Q93015), the log2 fold change in the assay with vorinostat is inactive: -0.419; in the assay with silmitasertib it was inactive: -0.106.
Regarding MUS81 (UniProt Q96NY9), the log2 fold change is inactive: -0.028 in the assay with vorinostat, inactive: 0.081 with silmitasertib and inactive: 0.082 in assay [2].
For NCLN isoform 2 (UniProt Q969V3), the values for the log2 fold change (in assay [1]; in assay [2]; in the assay with entospletinib) were inactive: 0.067, inactive: 0.067 and inactive: -0.012, respectively.
MYO1G (UniProt B0I1T2): the log2 fold change was inactive: -0.391 with vorinostat, inactive: -0.109 in the assay with silmitasertib, inactive: -0.281 in assay [2] and inactive: -0.094 with entospletinib.
